# Results reported in the supplement of paper PMC10849652.
# Protein sequences, listed by entry. Tags and fused reporters are not part of them. Lines headed by an entry give the natural chain unless they say otherwise; changes in a name come on top.
# UniProt Q96K31: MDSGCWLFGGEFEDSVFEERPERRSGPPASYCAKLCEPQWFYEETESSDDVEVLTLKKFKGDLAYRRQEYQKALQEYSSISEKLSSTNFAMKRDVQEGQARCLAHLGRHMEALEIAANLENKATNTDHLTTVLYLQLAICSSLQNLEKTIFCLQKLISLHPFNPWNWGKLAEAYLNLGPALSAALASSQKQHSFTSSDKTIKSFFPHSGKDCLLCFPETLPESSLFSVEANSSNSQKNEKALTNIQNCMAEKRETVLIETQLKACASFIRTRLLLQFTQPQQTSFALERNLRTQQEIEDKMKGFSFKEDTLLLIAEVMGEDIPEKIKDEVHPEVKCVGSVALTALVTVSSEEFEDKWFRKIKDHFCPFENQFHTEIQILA
# UniProt P47756, whole entry, looked up: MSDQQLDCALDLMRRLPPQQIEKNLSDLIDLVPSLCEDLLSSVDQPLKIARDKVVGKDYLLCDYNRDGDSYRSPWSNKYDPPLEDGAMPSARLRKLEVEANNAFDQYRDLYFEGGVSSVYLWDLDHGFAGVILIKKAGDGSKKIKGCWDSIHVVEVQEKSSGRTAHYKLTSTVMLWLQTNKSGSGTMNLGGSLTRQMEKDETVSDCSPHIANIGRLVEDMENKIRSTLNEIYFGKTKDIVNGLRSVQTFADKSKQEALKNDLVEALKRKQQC
# UniProt Q8N1Q1: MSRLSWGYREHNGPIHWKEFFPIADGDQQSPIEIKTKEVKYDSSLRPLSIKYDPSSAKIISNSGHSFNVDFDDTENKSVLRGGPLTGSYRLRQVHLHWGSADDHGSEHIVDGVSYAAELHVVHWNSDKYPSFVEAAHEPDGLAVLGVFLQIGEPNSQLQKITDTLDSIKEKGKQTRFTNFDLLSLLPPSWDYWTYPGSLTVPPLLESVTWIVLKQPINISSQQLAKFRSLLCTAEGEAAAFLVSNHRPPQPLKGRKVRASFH
# UniProt O43852: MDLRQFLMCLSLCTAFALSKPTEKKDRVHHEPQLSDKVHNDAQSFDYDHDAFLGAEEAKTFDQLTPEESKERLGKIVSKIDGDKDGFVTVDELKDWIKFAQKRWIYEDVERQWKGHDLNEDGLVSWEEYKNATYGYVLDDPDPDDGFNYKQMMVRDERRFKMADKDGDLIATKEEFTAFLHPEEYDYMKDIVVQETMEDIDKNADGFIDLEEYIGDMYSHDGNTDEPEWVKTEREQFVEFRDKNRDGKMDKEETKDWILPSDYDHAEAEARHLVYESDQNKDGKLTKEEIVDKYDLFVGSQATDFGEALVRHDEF
# UniProt Q2NKX9: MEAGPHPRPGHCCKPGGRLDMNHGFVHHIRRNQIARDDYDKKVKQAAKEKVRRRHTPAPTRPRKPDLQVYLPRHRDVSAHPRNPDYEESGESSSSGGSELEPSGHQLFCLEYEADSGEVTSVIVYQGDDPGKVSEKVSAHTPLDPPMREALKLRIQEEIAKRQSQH
# UniProt Q8N5I9: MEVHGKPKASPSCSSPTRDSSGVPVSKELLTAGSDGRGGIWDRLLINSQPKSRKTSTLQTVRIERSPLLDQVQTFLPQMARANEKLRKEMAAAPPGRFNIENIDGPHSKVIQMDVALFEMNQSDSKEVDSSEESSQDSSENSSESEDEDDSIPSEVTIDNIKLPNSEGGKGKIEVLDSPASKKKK
# UniProt Q9HB71, whole entry, looked up: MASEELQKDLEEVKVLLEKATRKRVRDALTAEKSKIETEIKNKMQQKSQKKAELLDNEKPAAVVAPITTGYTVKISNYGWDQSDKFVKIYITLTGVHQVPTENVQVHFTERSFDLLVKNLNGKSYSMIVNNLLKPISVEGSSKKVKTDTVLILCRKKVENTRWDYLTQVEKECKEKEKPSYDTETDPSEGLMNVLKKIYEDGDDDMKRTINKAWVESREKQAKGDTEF
# UniProt Q96B23: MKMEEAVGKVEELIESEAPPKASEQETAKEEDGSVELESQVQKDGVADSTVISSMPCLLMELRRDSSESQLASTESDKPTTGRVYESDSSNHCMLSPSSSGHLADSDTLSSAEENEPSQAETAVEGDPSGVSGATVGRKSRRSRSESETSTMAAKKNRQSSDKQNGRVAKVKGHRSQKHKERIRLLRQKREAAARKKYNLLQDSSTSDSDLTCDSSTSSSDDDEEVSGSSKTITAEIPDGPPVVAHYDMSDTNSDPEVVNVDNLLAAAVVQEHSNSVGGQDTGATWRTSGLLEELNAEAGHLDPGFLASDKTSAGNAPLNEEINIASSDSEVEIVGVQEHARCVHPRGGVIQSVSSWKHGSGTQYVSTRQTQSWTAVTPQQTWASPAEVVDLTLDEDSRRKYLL
# UniProt P05937: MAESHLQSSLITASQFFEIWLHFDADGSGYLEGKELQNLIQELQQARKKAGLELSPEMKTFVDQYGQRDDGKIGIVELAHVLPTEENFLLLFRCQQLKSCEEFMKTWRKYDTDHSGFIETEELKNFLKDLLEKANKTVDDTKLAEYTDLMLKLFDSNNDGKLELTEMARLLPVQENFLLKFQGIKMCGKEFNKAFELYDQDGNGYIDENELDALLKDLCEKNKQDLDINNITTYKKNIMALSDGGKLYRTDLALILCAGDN
# UniProt Q9BSU1: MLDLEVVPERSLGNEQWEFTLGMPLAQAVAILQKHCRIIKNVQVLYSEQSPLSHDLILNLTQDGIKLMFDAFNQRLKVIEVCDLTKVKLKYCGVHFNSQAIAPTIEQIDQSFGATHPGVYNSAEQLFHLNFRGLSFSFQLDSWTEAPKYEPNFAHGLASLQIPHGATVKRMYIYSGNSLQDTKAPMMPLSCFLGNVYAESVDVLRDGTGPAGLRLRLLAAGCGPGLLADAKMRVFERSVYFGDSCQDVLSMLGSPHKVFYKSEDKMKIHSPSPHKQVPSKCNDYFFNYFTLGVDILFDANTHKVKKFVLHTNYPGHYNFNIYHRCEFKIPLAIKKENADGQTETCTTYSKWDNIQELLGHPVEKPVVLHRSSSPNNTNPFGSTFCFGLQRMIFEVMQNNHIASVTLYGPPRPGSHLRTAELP
# UniProt Q8N1A6: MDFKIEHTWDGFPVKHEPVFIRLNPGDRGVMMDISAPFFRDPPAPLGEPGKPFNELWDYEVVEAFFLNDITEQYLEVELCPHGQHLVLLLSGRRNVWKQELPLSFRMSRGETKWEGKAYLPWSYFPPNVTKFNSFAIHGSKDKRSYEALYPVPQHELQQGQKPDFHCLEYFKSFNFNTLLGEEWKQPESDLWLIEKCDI
# UniProt P22676: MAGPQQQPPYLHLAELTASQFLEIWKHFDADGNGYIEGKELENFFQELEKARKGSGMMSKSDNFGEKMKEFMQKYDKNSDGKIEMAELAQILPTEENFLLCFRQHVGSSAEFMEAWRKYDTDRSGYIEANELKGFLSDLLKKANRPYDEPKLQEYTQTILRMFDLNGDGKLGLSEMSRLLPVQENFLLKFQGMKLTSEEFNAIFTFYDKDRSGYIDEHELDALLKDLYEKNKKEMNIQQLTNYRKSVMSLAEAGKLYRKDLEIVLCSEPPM
# UniProt Q96GV9: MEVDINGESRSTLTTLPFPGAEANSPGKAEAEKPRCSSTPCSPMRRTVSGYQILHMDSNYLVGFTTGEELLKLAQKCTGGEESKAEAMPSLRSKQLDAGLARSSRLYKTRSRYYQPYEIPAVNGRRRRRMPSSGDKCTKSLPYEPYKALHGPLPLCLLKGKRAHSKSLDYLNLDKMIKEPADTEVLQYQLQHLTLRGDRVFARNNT
# UniProt Q8IXQ3: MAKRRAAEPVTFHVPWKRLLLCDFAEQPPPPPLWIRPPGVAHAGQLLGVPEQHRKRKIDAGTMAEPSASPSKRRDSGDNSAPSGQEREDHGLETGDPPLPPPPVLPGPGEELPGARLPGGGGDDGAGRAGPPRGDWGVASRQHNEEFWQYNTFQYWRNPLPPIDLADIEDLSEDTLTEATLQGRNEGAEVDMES
# UniProt Q96RR4, whole entry, looked up: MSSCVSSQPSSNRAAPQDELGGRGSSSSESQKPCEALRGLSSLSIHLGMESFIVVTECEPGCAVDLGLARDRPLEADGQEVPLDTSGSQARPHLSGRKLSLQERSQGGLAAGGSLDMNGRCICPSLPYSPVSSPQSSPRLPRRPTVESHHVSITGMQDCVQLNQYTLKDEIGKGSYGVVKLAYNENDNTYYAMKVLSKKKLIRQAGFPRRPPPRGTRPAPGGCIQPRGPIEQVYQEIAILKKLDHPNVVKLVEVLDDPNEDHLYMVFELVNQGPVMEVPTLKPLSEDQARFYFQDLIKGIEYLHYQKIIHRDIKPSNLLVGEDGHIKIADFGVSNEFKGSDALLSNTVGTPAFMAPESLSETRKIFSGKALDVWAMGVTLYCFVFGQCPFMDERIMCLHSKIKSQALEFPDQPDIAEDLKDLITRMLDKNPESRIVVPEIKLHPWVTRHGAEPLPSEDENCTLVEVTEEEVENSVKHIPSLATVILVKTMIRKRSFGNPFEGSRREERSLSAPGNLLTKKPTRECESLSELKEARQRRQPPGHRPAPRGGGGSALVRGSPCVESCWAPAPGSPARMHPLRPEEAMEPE
# UniProt Q07021: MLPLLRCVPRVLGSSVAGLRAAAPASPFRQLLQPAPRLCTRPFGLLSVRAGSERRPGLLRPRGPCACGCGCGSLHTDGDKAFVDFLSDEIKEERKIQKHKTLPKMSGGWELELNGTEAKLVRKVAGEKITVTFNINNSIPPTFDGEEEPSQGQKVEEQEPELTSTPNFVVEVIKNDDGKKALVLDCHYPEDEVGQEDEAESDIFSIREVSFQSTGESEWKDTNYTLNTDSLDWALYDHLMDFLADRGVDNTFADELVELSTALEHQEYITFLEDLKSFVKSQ
# UniProt P00915: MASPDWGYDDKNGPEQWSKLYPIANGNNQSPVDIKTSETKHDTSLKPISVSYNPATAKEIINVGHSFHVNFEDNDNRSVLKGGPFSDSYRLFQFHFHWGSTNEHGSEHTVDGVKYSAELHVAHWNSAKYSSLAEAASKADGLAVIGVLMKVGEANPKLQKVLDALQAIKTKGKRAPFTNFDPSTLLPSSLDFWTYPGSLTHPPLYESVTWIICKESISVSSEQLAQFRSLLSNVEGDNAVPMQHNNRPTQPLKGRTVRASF
# UniProt Q9BRJ6: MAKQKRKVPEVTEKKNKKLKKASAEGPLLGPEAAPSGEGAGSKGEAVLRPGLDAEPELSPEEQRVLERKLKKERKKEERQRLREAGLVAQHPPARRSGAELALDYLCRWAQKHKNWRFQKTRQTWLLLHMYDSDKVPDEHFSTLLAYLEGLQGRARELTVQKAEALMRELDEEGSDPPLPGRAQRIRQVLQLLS
# UniProt Q6P1X6: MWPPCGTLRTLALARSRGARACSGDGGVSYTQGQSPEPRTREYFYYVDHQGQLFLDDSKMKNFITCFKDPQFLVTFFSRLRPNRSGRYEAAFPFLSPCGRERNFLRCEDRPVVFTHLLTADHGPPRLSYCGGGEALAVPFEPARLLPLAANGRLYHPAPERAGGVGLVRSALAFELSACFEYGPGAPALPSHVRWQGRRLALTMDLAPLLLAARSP
# UniProt P49069: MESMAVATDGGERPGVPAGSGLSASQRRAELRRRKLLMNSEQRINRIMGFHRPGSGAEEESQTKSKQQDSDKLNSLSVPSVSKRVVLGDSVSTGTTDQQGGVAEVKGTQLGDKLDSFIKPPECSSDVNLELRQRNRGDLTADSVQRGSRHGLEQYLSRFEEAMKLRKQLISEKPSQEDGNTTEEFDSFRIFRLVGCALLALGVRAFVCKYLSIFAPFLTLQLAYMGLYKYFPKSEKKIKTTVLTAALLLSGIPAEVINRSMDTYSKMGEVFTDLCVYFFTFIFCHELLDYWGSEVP
# UniProt Q13137: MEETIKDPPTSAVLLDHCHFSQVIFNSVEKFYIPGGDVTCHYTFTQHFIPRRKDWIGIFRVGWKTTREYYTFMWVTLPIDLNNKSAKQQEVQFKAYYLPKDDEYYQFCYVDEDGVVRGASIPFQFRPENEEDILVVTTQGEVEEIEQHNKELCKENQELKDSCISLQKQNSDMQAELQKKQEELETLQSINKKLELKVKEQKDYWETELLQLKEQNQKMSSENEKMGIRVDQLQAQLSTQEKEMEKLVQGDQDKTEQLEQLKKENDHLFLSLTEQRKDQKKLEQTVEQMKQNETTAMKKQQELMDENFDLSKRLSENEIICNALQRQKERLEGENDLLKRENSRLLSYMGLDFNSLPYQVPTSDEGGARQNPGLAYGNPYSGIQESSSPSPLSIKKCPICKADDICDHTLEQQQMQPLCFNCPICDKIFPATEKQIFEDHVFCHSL
# UniProt Q8N8R5: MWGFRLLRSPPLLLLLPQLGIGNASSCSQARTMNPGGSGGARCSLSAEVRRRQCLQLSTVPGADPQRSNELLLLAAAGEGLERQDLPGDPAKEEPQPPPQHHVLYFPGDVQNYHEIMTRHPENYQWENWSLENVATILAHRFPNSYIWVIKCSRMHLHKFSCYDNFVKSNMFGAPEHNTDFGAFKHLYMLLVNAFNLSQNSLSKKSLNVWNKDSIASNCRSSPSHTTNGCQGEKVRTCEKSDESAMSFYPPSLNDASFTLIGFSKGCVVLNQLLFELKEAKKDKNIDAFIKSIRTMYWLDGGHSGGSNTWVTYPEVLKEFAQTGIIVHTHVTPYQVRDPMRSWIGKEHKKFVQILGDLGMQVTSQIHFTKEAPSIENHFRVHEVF
# The list shows a part of the results.
# Assays:
# Assay in all cases: log2 fold change, soluble protein after heating vs DMSO (PISA); higher = thermal stabilisation; K562 lysate, 10 uM; active = over 0.2 and 3.5 SD of the protein, either way, in both replicates (recomputed)
# [1] = compound: C#Cc1cccc(Nc2ncnc3cc(OCCOC)c(OCCOC)cc23)c1 [erlotinib]
# In short: (§1)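 The values are log-two fold changes in thermal stability compared with solvent controls and come from duplicates. They were obtained by TMTpro 16plex LC-MS/MS, with channel sums equalised, on the supernatant after 21,000xg for 90 min. That supernatant came from crude K562 extract at 1 mg/mL protein treated with 10 μM compound for 30 min, heated for 3 min across 48°C-58°C, pooled and brought to 0.5% NP-40 at 4°C.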
# [2] = compound: C/C(=N\NC(=O)C1=CC(=CC=C1)S(=O)(=O)N2CCOCC2)/C3=C(C=CC(=C3)Cl)O
# In short: as §1
# [3] = compound: C1=CC(=CC=C1C2=NC3=C(N2)C=C(C=C3)C(=O)N)OC4=CC=C(C=C4)Cl
# In short: as §1
# [4] = compound: C1=CC2=C(C=CC(=C2)/C=C\3/C(=O)NC(=NCC4=CC=CS4)S3)N=C1
# In short: as §1
# [5] = compound: C1=CC2=NC=CN=C2C=C1/C=C/3\C(=O)NC(=O)S3
# In short: as §1
# [6] = compound: C1=CC=C(C=C1)C2=NC(=C(N2)C3=CC=NC=C3)C4=CC(=C(C=C4)Cl)O
# In short: as §1
# [7] = compound: C1=CC=C2C(=C1)C3=NNC4=CC=CC(=C43)C2=O
# In short: as §1
# [8] = compound: C1CCN(C1)C(=O)NC2=CC=CC(=C2)NC3=NC=C(C(=N3)NCCC4=CN=CN4)Br
# In short: as §1
# [9] = compound: C1CN(CCC1(CC2=CC=C(C=C2)Cl)N)C3=NC=NC4=C3C=CN4
# In short: as §1
# [10] = compound: C1COCCN1CCN2C3=CC=CC=C3N=C2NC(=O)C4=CC(=CC=C4)[N+](=O)[O-] [IRAK-1-4 Inhibitor I]
# In short: as §1
Target,log2 fold change [1],log2 fold change [2],log2 fold change [3],log2 fold change [4],log2 fold change [5],log2 fold change [6],log2 fold change [7],log2 fold change [8],log2 fold change [9],log2 fold change [10]
C8orf76 (UniProt Q96K31),inactive: -0.015,inactive: -0.061,inactive: 0.033,inactive: 0.045,inactive: -0.057,inactive: 0.02,inactive: -0.034,inactive: 0.033,inactive: -0.025,inactive: 0.026
CAPZB isoform 2 (UniProt P47756),inactive: -0.005,inactive: -0.408,inactive: 0.03,inactive: -0.014,inactive: -0.015,inactive: 0.009,inactive: -0.036,inactive: 0.023,inactive: 0.019,inactive: -0.035
CA13 (UniProt Q8N1Q1),inactive: 0.057,inactive: 0.054,inactive: -0.038,inactive: -0.012,inactive: -0.052,inactive: -0.013,inactive: 0,inactive: -0.019,inactive: -0.026,inactive: 0.044
CALU isoform 4 (UniProt O43852),inactive: -0.044,inactive: 0.048,inactive: -0.012,inactive: -0.029,inactive: 0.018,inactive: 0.045,inactive: -0.032,inactive: 0.04,inactive: -0.017,inactive: 0.016
CA2 (UniProt P00918),inactive: -0.086,inactive: -0.146,inactive: 0.13,inactive: -0.188,inactive: -0.058,inactive: 0.031,inactive: 0.036,inactive: -0.009,inactive: -0.112,inactive: -0.141
C2orf68 (UniProt Q2NKX9),inactive: -0.031,inactive: -0.236,inactive: 0.064,inactive: -0.008,inactive: 0.081,inactive: 0.061,inactive: 0.051,inactive: -0.01,inactive: 0.005,inactive: 0.04
C12orf45 (UniProt Q8N5I9),inactive: -0.038,inactive: -0.113,inactive: 0.027,inactive: 0.009,inactive: -0.037,inactive: 0.009,inactive: 0.009,inactive: -0.018,inactive: 0.009,inactive: -0.002
CACYBP (UniProt Q9HB71),inactive: 0,inactive: -0.008,inactive: 0.023,inactive: -0.031,inactive: -0.01,inactive: 0.011,inactive: 0,inactive: 0.002,inactive: 0.007,inactive: -0.006
C1GALT1C1 (UniProt Q96EU7),inactive: -0.03,inactive: 0.14,inactive: -0.016,inactive: -0.004,inactive: 0.032,inactive: -0.01,inactive: -0.057,inactive: -0.097,inactive: -0.037,inactive: 0.018
C18orf25 isoform 2 (UniProt Q96B23),inactive: 0.031,inactive: 0.098,inactive: -0.059,inactive: -0.002,inactive: 0.185,inactive: 0.055,inactive: -0.011,inactive: -0.01,inactive: -0.063,inactive: 0.003
C11orf98 (UniProt E9PRG8),inactive: 0,inactive: -0.447,inactive: 0.01,inactive: -0.042,inactive: 0.01,inactive: 0.01,inactive: 0.035,inactive: 0.012,inactive: -0.007,inactive: -0.021
C20orf27 isoform 2 (UniProt Q9GZN8),inactive: 0.095,inactive: -0.02,inactive: -0.091,inactive: -0.022,inactive: 0.013,inactive: -0.031,inactive: 0.075,inactive: 0.042,inactive: 0.019,inactive: 0.052
C19orf53 (UniProt Q9UNZ5),inactive: -0.059,inactive: -0.072,inactive: -0.037,inactive: -0.037,inactive: -0.087,inactive: -0.034,inactive: 0.056,inactive: 0.022,inactive: 0.017,inactive: -0.015
CALB1 (UniProt P05937),inactive: -0.012,inactive: -0.022,inactive: 0.015,inactive: -0.009,inactive: -0.06,inactive: 0.007,inactive: -0.011,inactive: 0,inactive: 0.013,inactive: -0.012
C16orf70 (UniProt Q9BSU1),inactive: 0.023,inactive: 0.194,inactive: -0.06,active: 0.271,inactive: 0.033,inactive: -0.128,inactive: -0.193,inactive: 0.016,inactive: 0.055,inactive: -0.021
C4orf33 (UniProt Q8N1A6),inactive: -0.071,inactive: -0.033,inactive: 0.014,inactive: 0.116,inactive: -0.026,inactive: 0.001,inactive: -0.001,inactive: -0.014,inactive: 0.035,inactive: 0.036
CALB2 (UniProt P22676),inactive: 0.021,inactive: 0.045,inactive: -0.04,inactive: -0.103,inactive: -0.077,inactive: 0.02,inactive: 0.043,inactive: 0.056,inactive: 0.065,inactive: 0.08
C5orf30 (UniProt Q96GV9),inactive: 0.037,inactive: -0.089,inactive: -0.035,inactive: -0.009,inactive: -0.118,inactive: 0.095,inactive: 0.003,inactive: 0,inactive: -0.003,inactive: -0.029
C9orf40 (UniProt Q8IXQ3),inactive: -0.011,inactive: -0.688,inactive: -0.01,inactive: 0.035,inactive: 0.013,inactive: -0.108,inactive: 0.03,inactive: -0.028,inactive: 0.059,inactive: 0.109
CAMKK2 (UniProt Q96RR4),inactive: -0.033,inactive: -0.028,inactive: -0.045,inactive: -0.057,inactive: -0.014,inactive: 0.005,inactive: 0.002,inactive: 0.135,inactive: 0.033,inactive: -0.027
C1QBP (UniProt Q07021),inactive: -0.017,inactive: -0.083,inactive: -0.002,inactive: 0.006,inactive: 0.007,inactive: 0.021,inactive: 0.005,inactive: -0.004,inactive: -0.019,inactive: 0.012
CA1 (UniProt P00915),inactive: -0.008,inactive: -0.046,inactive: 0.015,inactive: 0.018,inactive: 0.01,inactive: 0.009,inactive: -0.024,inactive: 0.009,inactive: 0.007,inactive: 0
C7orf50 (UniProt Q9BRJ6),inactive: -0.043,inactive: -0.033,inactive: -0.003,inactive: 0.015,inactive: -0.033,inactive: -0.01,inactive: 0.058,inactive: 0.024,inactive: -0.022,inactive: -0.008
C8orf82 (UniProt Q6P1X6),inactive: -0.042,inactive: 0.003,inactive: -0.023,inactive: 0.008,inactive: 0.028,inactive: 0.002,inactive: -0.077,inactive: 0.05,inactive: 0.026,inactive: -0.012
CAMLG (UniProt P49069),inactive: -0.002,inactive: 0.05,inactive: -0.013,inactive: 0.004,inactive: -0.001,inactive: 0.035,inactive: -0.033,inactive: 0.029,inactive: -0.028,inactive: -0.025
CALCOCO2 isoform 4 (UniProt Q13137),inactive: 0.009,inactive: 0.114,inactive: 0.005,inactive: -0.021,inactive: -0.004,inactive: -0.026,inactive: 0.003,inactive: -0.025,inactive: 0.051,inactive: 0.012
C2orf69 (UniProt Q8N8R5),inactive: -0.018,inactive: -0.015,inactive: -0.043,inactive: -0.034,inactive: -0.059,inactive: -0.001,inactive: 0.025,inactive: -0.002,inactive: 0.023,inactive: -0.021

# 2 entries from above, bar-delimited:
Target | log2 fold change [1] | log2 fold change [2] | log2 fold change [3] | log2 fold change [4] | log2 fold change [5] | log2 fold change [6] | log2 fold change [7] | log2 fold change [8] | log2 fold change [9] | log2 fold change [10]
C19orf53 (UniProt Q9UNZ5) | inactive: -0.059 | inactive: -0.072 | inactive: -0.037 | inactive: -0.037 | inactive: -0.087 | inactive: -0.034 | inactive: 0.056 | inactive: 0.022 | inactive: 0.017 | inactive: -0.015
CALB1 (UniProt P05937) | inactive: -0.012 | inactive: -0.022 | inactive: 0.015 | inactive: -0.009 | inactive: -0.06 | inactive: 0.007 | inactive: -0.011 | inactive: 0 | inactive: 0.013 | inactive: -0.012
